Source: patent publication US20210070723A1, “CRYSTAL FORM OF SESQUITERPENE DERIVATIVE, PREPARATION METHOD THEREFOR AND USE THEREOF” (Nankai University, priority 2017, published 2021)
Some results were stated once for a whole list of compounds, not compound by compound.

Assay: Absorption experiment (pharmacokinetics and bioavailability) in rats
Type: in vivo, Sprague Dawley rats
Settings: crystal form A prepared by the methods in example 1 and example 3
Description: Trial rats were Sprague Dawley rats, 7 rats in total, 1 rat was used as blank control, and blank plasma was taken to be used. 3 rats were administrated via tail intravenous injection (30 mpk), and 3 rats were orally and intragastrically administrated (150 mpk). According to the set time schedule, blood was collected from orbital vein to put in a blood collection vessel containing heparin sodium, centrifuged for 10min at 4° C. and 3500rpm, the supernatant of plasma was taken and put into EP tube, and the content of the compound of structural formula (I) in blood was detected. Bioavailability was calculated according to the following formula: bioavailability F %=(AUCpo/AUCIV)×(dose IV/dose po)×100%; Time schedule was set, as shown in Table 2. AUCpo is an area under the drug concentration-time curve under administrating oral drug, AUCIV is an area under the drug concentration-time curve under intravenous injecting drug, dose IV is the dose of the injected drug, the dose po is the dose of the oral drug, Tmax (h) is the time to reach the blood peak, T1/2 (h) is the half-life of blood concentration, and Cmax (ng/mL) is the drug peak concentration of the drug-time curve.

In the case of `CN(C)C[C@@H]1C(=O)O[C@@H]2C[C@@]3(C)CC[C@@H](O)[C@]4(CO4)[C@@H]3C[C@H]12.O=C(O)CCC(=O)O` [Example 3], the bioavailabilities is reported as “more than 85.5”.
